## Percent effect of library compounds

Protein sequences, listed by entry. Tags and fused reporters are not part of them.
UniProt I6X8D2, whole entry: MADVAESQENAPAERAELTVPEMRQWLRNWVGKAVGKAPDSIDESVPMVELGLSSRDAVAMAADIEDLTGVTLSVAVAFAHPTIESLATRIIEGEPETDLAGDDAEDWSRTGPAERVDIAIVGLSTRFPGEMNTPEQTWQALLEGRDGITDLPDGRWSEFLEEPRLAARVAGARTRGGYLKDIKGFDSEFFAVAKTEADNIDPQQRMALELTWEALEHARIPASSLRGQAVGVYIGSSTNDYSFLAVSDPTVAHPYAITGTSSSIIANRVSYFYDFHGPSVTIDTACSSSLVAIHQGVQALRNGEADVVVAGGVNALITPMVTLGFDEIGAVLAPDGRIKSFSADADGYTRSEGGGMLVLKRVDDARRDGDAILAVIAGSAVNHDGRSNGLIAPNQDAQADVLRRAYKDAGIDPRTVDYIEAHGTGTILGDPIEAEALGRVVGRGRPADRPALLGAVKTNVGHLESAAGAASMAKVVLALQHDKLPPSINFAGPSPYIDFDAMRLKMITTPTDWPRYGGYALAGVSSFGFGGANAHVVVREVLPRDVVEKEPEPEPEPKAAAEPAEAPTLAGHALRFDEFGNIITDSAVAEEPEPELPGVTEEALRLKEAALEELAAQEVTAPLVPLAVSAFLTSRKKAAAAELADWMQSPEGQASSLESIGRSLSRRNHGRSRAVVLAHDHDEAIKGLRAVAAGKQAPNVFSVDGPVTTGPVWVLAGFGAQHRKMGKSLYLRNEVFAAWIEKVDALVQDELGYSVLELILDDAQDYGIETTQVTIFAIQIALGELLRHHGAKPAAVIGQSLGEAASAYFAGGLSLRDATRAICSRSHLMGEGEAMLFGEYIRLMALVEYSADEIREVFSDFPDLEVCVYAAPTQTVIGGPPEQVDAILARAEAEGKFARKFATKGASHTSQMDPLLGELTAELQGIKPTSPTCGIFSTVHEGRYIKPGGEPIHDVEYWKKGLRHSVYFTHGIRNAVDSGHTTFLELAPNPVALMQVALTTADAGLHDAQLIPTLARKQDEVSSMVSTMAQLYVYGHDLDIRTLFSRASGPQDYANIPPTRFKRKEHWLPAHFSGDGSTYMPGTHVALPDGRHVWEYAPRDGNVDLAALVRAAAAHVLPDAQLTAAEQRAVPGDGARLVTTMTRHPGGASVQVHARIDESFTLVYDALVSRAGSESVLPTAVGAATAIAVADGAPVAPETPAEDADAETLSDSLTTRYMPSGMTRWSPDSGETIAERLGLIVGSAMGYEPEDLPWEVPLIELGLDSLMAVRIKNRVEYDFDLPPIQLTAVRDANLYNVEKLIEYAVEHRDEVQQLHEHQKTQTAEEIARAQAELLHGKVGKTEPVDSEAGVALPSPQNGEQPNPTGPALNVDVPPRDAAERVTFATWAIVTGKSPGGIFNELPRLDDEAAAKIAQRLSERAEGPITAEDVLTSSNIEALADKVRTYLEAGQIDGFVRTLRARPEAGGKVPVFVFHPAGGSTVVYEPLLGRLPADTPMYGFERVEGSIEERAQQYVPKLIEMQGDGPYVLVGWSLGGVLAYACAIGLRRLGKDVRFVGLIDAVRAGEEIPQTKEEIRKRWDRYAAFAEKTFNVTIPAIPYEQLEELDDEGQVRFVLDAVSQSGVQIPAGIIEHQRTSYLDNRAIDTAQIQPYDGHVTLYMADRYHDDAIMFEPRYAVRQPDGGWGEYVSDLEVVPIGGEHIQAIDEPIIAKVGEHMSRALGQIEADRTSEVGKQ
UniProt P9WPC5, whole entry: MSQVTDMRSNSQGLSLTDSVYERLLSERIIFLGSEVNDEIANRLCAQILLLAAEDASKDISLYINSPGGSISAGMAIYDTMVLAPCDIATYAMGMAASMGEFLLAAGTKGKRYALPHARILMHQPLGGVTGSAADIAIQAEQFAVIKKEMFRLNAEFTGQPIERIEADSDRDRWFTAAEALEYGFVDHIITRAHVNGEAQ
UniProt P9WPC3, whole entry partner: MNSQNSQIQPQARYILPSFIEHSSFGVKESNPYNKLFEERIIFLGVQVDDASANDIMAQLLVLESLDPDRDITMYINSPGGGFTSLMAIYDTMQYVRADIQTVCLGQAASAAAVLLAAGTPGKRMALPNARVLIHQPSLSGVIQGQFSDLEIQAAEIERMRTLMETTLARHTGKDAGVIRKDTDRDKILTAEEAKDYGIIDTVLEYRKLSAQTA

Data taken from ChEMBL document CHEMBL3988442, “University of Dundee, Small-Polar-MMV Screening Library” (2021).

A: 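Cell assay of Leishmania donovani living inside macrophages; the read-out is not stated. Compounds at 30 µM. Higher reads as stronger inhibition (inferred: compounds with an IC50 in retests scored well above the rest). About 69,000 compounds were tested under these conditions; 1.5% (about 1,000) showed 50% or more at least once.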
B: 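Enzyme assay of the thioesterase domain of polyketide synthase 13; the read-out is not stated. Target: Polyketide synthase Pks13, Mycobacterium tuberculosis (UniProt I6X8D2). Compounds at 30 µM. The record gives no direction; the compounds picked for IC50 retests had high values, so higher reads as stronger inhibition. About 67,000 compounds were tested under these conditions; 0.46% (about 300) showed 50% or more at least once.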
C: 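Protease assay of ClpP1P2, read by the AMC dye that it sets free. Target: ClpP1P2, Mycobacterium tuberculosis (UniProt P9WPC5 and UniProt P9WPC3). Tested at 50 µM. Higher reads as stronger inhibition, judged from the few compounds that gave an IC50. Most other retested compounds had strongly negative values. About 69,000 compounds were tested under these conditions; 0.015% (about 10) showed 50% or more at least once.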
D: 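Whole-parasite assay of Trypanosoma brucei over 72 hours; the read-out is not stated. Concentration: 30 µM. The record gives no direction; compounds that gave an IC50 in retests scored well above the rest, so higher reads as stronger inhibition. Values scatter widely below zero; nearly all retest evidence comes from the higher of the two concentrations used. About 64,000 compounds were tested under these conditions; 1.5% (about 940) showed 50% or more at least once.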

Values are the deposited “Percent Effect”, in %.
How 0% and 100% were set is not recorded. Most values in the screen are low, and negative values occur.
This is an unselected part of the compounds tested.

{"structure": "COc1ccccc1CN1C(=O)O[C@@H]2CN(c3ccccn3)C[C@@H]21", "B": 4.733, "C": -7.327}
{"structure": "c1ccc(CN2CCCC2Cn2cncn2)nc1", "stereo": "stereo not drawn", "A": 12.03, "B": -19.53, "C": -4.494, "D": -25.53}
{"structure": "[H][C@@]12CN(Cc3ccccc3OC)C[C@]1([H])OCC(=O)N2CCOC", "A": 8.598, "D": 19.13}
{"structure": "CC(C)c1nccn1CC(=O)Nc1ccnn1C(C)C(C)C", "stereo": "stereo not drawn", "A": 21.19, "B": -4.686, "C": 2.439, "D": -17.82}
{"structure": "O=C1[C@@H]2CN(Cc3ccccn3)C[C@H]2CCN1c1cncnc1", "C": -0.6571}
{"structure": "CCN1CC(COc2ccccc2)Oc2ncccc2S1(=O)=O", "stereo": "stereo not drawn", "A": 8.075, "B": 14.88, "C": -2.522, "D": 8.209}
{"structure": "CC(C)(C)C(=O)NCCCn1cncn1", "A": 5.359, "B": 7.893, "C": 12.95, "D": 7.495}
{"structure": "N#Cc1cccnc1N1CCCN(C(=O)CCn2cccn2)CC1", "A": 21.58, "B": -0.08023, "C": -50.84, "D": 9.695}
{"structure": "NC(=O)COc1ccc(CNCc2cc(F)ccc2F)cc1", "B": -12.26, "C": 1.598}
{"structure": "Cn1cc(NC(=O)N2CCC(NS(C)(=O)=O)CC2)ccc1=O", "A": -14.94, "B": -13.55, "C": -6.905, "D": 0.5196}
{"structure": "CCC(CC)C(=O)N1CCOC2(COCCN(CC(=O)NC)C2)C1", "stereo": "stereo not drawn", "C": -2.444}
{"structure": "CCC(C)(NCC(=O)NC(C)C)c1nccs1", "stereo": "stereo not drawn", "A": 34.48, "B": -36.87, "C": 0.6718, "D": -17.43}
{"structure": "Cc1nnc(SCC(=O)c2cc3c(cc2Cl)NC(=O)C3)o1", "A": 1.522, "B": 0.07137, "C": -2.793, "D": -36.6}
{"structure": "CCC(O)CN1CCN(C(=O)c2ccn(-c3ccccc3)n2)CC1", "stereo": "stereo not drawn", "A": 10.02, "B": -19.9, "C": -12.81, "D": 0.3353}
{"structure": "[H][C@@]12CCN(Cc3nccs3)[C@]1([H])CC[C@H](C(=O)NCC1CC1)O2", "A": 13.46, "D": -42.15}
{"structure": "COc1cccc(CN2CCCC2c2cccc(F)c2)c1OC", "stereo": "stereo not drawn", "A": 48.24, "B": -19.52, "C": -4.227, "D": 23.53}
{"structure": "CCOCC1CN(C(=O)c2ccnnc2)Cc2cnn(C)c21", "stereo": "stereo not drawn", "A": -14.08, "B": -9.828, "C": -7.024, "D": -9.542}
{"structure": "Cc1cc(C(=O)N2C[C@H]3CC[C@@H]2CN(C)C3)ccc1Cl", "B": 3.883, "C": 7.213}
{"structure": "O=C(NCCNc1ncccn1)N1CCc2ccccc2C1", "A": -6.349, "B": -16.08, "C": 3.653, "D": -15.04}

For reference, 2 entries once more:

structure,A,B,C,D
Cc1nnc(SCC(=O)c2cc3c(cc2Cl)NC(=O)C3)o1,1.522,0.07137,-2.793,-36.6
CCC(O)CN1CCN(C(=O)c2ccn(-c3ccccc3)n2)CC1 (stereo not drawn),10.02,-19.9,-12.81,0.3353